Results: the supplement of paper PMC6411743
± gives the standard deviation of the averaged measurements. The entries are a selection whose mix differs from that of the whole data set.

Sequences of proteins named here, by UniProt entry; tags and fusion partners are left off. A change or cut given only in a name is not applied to a line headed by its entry.
UniProt Q14137: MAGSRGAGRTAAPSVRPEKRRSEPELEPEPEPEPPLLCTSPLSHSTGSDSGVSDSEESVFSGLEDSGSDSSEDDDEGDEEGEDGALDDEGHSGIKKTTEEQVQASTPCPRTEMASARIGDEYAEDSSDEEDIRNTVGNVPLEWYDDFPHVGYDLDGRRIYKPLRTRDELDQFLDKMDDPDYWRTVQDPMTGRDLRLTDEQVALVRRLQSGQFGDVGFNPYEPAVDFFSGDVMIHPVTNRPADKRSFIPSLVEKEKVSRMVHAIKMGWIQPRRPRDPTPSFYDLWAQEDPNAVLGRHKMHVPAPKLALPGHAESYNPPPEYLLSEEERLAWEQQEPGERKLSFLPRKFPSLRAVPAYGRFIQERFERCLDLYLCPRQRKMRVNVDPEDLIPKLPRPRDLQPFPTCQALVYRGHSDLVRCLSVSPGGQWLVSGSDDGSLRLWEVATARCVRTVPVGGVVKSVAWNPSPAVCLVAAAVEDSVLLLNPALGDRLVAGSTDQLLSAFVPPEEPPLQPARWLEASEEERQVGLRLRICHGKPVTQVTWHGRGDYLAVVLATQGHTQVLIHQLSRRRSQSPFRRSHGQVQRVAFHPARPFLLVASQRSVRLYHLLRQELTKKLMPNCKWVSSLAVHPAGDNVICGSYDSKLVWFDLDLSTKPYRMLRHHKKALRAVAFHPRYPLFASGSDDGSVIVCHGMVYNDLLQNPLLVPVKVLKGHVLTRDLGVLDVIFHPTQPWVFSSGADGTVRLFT
UniProt Q13362, whole entry, looked up: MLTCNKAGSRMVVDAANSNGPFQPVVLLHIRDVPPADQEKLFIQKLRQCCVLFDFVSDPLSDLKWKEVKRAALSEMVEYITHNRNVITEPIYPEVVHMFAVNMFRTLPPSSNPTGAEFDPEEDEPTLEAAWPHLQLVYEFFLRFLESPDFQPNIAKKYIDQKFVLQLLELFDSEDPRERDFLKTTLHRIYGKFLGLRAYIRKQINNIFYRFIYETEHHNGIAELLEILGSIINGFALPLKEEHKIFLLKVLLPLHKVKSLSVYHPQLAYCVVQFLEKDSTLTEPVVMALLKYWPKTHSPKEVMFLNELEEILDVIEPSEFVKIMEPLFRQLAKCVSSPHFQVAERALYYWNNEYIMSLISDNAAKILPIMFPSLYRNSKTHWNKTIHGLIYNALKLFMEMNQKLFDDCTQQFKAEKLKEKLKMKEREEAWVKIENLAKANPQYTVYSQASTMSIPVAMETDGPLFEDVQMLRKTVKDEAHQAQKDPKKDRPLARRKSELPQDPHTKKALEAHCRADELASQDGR
UniProt Q12770: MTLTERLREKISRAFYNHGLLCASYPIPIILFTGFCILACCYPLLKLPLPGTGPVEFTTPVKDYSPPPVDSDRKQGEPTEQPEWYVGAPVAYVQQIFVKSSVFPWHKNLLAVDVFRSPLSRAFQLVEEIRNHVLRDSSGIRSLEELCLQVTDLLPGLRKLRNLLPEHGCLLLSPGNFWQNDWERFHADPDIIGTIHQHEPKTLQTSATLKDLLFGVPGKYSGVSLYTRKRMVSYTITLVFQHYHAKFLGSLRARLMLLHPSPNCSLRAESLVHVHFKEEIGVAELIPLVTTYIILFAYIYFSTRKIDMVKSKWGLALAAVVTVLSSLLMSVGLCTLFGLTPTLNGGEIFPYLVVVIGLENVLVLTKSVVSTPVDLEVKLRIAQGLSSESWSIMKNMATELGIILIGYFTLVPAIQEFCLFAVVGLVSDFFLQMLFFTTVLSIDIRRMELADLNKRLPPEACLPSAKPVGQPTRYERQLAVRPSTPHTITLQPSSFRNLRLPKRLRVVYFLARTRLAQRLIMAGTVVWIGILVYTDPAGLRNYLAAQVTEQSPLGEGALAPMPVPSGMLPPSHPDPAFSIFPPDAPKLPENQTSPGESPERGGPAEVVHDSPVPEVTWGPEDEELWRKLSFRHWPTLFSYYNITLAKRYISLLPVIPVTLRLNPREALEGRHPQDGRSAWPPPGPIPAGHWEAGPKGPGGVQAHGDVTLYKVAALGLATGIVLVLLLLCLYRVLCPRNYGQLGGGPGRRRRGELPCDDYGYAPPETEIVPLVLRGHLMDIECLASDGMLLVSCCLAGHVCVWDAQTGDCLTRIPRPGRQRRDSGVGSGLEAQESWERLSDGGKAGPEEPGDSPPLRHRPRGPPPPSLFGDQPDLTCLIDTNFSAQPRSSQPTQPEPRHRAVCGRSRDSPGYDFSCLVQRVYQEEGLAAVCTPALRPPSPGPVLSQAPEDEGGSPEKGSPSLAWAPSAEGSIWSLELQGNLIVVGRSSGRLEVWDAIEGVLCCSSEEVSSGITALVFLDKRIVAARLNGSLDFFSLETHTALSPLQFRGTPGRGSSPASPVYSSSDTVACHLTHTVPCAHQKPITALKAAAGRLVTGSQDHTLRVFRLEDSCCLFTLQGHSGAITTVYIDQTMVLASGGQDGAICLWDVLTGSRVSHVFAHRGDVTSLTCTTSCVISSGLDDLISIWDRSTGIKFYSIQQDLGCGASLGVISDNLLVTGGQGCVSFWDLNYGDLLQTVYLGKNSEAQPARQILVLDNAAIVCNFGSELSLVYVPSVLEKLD
UniProt Q13123, whole entry: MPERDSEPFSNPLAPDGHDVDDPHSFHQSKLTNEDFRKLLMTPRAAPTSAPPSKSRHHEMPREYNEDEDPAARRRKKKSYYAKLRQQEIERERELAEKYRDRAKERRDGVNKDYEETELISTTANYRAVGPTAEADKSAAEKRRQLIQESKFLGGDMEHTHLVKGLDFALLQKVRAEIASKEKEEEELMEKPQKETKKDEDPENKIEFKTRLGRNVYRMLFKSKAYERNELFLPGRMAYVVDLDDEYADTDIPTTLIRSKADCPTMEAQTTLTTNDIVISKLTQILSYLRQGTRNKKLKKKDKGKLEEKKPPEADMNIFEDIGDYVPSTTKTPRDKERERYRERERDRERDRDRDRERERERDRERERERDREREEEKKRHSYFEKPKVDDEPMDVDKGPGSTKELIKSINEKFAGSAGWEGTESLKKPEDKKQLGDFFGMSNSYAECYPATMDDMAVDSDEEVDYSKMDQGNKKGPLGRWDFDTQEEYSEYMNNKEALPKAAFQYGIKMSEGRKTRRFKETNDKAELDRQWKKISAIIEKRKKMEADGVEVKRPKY
UniProt Q13151: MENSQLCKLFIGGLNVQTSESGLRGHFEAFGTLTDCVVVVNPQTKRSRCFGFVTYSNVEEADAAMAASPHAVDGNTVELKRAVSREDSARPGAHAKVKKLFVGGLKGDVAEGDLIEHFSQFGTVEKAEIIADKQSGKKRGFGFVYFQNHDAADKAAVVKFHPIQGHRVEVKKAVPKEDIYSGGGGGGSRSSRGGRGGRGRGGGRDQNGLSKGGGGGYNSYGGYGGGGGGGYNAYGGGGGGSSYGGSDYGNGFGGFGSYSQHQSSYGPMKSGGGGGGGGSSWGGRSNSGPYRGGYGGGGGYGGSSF
UniProt Q14019: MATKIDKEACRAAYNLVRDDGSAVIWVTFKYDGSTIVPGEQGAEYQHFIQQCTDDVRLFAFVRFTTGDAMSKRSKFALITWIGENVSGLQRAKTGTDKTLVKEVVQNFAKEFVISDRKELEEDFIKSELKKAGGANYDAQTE
UniProt Q13523: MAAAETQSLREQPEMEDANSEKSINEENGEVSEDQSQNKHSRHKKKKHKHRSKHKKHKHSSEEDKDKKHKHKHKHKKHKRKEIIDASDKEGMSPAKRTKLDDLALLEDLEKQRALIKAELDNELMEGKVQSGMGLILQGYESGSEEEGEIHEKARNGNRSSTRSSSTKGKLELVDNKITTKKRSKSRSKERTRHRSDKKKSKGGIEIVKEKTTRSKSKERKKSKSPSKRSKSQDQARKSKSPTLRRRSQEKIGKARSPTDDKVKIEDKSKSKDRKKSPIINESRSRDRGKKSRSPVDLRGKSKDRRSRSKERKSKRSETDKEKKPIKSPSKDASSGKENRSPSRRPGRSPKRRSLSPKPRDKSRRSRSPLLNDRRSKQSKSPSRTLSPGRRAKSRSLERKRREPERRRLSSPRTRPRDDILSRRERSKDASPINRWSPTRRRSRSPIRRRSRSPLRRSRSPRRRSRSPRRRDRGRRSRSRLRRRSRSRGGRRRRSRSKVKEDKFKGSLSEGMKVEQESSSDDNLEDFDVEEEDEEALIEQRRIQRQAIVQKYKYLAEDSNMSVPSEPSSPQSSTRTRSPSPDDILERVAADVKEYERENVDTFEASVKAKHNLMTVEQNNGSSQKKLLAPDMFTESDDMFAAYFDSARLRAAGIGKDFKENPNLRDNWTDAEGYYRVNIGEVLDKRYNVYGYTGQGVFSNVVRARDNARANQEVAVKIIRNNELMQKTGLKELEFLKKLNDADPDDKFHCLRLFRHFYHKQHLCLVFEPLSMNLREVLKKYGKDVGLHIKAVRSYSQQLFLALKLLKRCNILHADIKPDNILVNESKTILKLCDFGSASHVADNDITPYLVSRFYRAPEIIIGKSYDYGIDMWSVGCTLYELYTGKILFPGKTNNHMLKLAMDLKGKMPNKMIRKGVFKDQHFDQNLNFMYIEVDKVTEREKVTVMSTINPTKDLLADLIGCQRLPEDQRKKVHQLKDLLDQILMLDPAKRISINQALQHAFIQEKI
UniProt Q15072: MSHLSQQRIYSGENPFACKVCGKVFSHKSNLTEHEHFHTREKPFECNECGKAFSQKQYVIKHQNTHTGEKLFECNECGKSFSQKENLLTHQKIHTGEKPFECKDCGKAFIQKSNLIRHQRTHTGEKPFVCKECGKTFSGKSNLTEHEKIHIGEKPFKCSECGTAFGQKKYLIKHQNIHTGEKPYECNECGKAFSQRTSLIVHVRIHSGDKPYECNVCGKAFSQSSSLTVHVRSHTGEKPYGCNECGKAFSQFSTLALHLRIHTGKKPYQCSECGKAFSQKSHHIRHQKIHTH
UniProt Q12800: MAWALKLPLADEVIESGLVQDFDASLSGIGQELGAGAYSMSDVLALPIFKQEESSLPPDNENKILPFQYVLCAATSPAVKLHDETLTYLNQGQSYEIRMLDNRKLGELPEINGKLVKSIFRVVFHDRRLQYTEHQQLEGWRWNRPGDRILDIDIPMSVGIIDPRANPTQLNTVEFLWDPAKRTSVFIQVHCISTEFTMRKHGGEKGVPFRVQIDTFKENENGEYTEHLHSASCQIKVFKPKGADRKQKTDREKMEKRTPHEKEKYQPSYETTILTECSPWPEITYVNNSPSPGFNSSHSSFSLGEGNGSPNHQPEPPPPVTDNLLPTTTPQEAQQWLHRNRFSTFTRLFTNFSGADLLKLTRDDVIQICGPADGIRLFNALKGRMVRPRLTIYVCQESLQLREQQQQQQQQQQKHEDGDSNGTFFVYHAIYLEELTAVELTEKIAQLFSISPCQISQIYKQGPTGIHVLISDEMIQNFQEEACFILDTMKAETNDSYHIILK
UniProt Q14691: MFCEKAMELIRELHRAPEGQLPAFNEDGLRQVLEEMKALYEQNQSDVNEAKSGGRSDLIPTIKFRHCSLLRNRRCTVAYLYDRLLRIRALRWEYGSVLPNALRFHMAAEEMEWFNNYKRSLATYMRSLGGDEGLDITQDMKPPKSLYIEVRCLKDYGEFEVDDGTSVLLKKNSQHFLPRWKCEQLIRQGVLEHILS
UniProt Q08752, whole entry: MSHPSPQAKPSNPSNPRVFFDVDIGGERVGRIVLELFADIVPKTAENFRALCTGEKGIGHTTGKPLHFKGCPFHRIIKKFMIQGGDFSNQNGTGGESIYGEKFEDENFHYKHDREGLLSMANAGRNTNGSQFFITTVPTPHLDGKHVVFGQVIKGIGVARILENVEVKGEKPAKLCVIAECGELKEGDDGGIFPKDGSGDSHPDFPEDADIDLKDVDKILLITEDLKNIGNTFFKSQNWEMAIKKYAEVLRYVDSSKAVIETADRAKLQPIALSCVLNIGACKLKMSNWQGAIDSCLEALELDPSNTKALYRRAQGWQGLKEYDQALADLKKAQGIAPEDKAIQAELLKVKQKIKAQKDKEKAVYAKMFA
UniProt Q13564: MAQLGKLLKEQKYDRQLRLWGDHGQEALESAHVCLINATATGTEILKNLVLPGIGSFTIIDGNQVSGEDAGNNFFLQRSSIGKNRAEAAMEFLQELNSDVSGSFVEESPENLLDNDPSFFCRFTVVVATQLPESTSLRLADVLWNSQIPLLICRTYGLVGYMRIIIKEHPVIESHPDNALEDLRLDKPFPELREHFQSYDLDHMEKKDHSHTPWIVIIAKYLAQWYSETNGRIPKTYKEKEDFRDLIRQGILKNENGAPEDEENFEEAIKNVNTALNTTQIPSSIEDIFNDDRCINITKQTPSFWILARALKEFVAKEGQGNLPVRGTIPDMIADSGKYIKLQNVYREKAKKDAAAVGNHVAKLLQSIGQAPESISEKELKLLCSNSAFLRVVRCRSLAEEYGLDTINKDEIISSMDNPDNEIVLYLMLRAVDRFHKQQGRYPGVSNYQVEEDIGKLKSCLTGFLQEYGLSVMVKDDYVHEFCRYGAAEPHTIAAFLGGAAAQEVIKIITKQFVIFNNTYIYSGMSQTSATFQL

Compound: Nc1ncnc2c1ncn2[C@@H]1O[C@H](COP(=O)(O)OP(=O)(O)NP(=O)(O)O)[C@@H](O)[C@H]1O [adenylyl imidodiphosphate]
Assay: NP40-soluble protein abundance relative to vehicle (solubility fold change) (ratio); higher = more soluble protein in presence of AMP-PNP
In short: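 Jurkat crude lysate prepared with a Dounce homogeniser was treated at eight concentrations spanning 0.1 to 10 mM, 10 min at room temperature then 3 min at 37 °C. Solubilisation with 0.8% NP40 and benzonase and ultracentrifugation preceded TMT labelling of the supernatant for LC-MS/MS. Fold change against the detergent-processed vehicle was determined per replicate from vsn-normalised intensities, across three independent experiments.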

Target	NP40-soluble protein abundance (concentration: 1mM)	NP40-soluble protein abundance (concentration: 2mM)	NP40-soluble protein abundance (concentration: 4mM)	NP40-soluble protein abundance (concentration: 6mM)	NP40-soluble protein abundance (concentration: 8mM)	NP40-soluble protein abundance (concentration: 10mM)
HDAC1 (UniProt Q13547)	0.93 ± 0.014	0.914 ± 0.016	0.892 ± 0.022	0.942 ± 0.0047	0.919 ± 0.015	0.909 ± 0.028
BOP1 (UniProt Q14137)	1.01 ± 0.018	1.01 ± 0.028	0.973 ± 0.035	0.965 ± 0.038	0.931 ± 0.033	0.946 ± 0.025
UniProt Q14687 and related entries	1.06 ± 0.067	1.1 ± 0.022	1.04 ± 0.056	0.992 ± 0.056	0.982 ± 0.044	1.01 ± 0.062
UNC119 (UniProt Q13432)	1.006 ± 0.0093	1.007 ± 0.0039	0.987 ± 0.018	0.986 ± 0.054	1.03 ± 0.038	1.03 ± 0.021
PSMD2 (UniProt Q13200)	0.891 ± 0.014	0.849 ± 0.068	0.854 ± 0.074	0.858 ± 0.087	0.851 ± 0.086	0.816 ± 0.12
UniProt Q13362-2|Q13362-3|Q13362-4	0.982 ± 0.017	1.04 ± 0.036	0.989 ± 0.018	0.976 ± 0.036	0.948 ± 0.018	0.966 ± 0.043
UniProt Q15025 and related entries	0.973 ± 0.041	1.02 ± 0.035	0.944 ± 0.061	0.913 ± 0.056	0.922 ± 0.021	0.893 ± 0.034
CUL1 (UniProt Q13616)	0.994 ± 0.021	0.952 ± 0.061	0.962 ± 0.026	0.955 ± 0.034	0.96 ± 0.042	0.941 ± 0.046
UniProt Q12770 and related entries	1 ± 0.049	0.985 ± 0.03	0.9864 ± 0.0095	0.9718 ± 0.0087	0.999 ± 0.0077	0.981 ± 0.024
UniProt Q15029 and related entries	1.03 ± 0.048	0.974 ± 0.11	1.02 ± 0.049	1.04 ± 0.071	1.07 ± 0.064	1.1 ± 0.1
IK (UniProt Q13123)	1.06 ± 0.024	1.1 ± 0.06	1.1 ± 0.031	1.14 ± 0.026	1.156 ± 0.0063	1.26 ± 0.023
SLFN5 (UniProt Q08AF3)	1.1 ± 0.071	1.07 ± 0.15	1.11 ± 0.13	1.06 ± 0.12	1.07 ± 0.12	1.06 ± 0.11
UniProt Q13555-2|Q13555-8|Q13555-9|A0A0A0MT11|Q13555 and related entries	0.955 ± 0.068	0.903 ± 0.045	0.899 ± 0.069	0.879 ± 0.05	0.867 ± 0.045	0.87 ± 0.067
KRR1 (UniProt Q13601)	1.05 ± 0.035	1.1 ± 0.071	1.09 ± 0.011	1.08 ± 0.049	1.06 ± 0.047	1.08 ± 0.024
NCBP1 (UniProt Q09161)	1.04 ± 0.035	1.04 ± 0.053	1.06 ± 0.038	1.01 ± 0.035	1.03 ± 0.046	1.06 ± 0.015
UniProt Q14197 and related entries	1 ± 0.1	0.952 ± 0.083	0.974 ± 0.087	0.95 ± 0.13	0.978 ± 0.14	0.953 ± 0.19
UniProt Q14004 and related entries	1.04 ± 0.012	1.08 ± 0.016	1.09 ± 0.021	1.08 ± 0.033	1.05 ± 0.026	1.103 ± 0.0043
LCP2 (UniProt Q13094)	1.02 ± 0.027	1.05 ± 0.053	0.992 ± 0.034	0.98 ± 0.0097	0.955 ± 0.042	0.947 ± 0.061
UniProt Q13825 and related entries	0.995 ± 0.028	1.02 ± 0.025	1.04 ± 0.044	1.03 ± 0.015	1.04 ± 0.057	1.06 ± 0.025
UniProt Q14680 and related entries	1.01 ± 0.017	1.02 ± 0.024	0.994 ± 0.022	1.01 ± 0.0026	1.01 ± 0.022	1.02 ± 0.044

Target	NP40-soluble protein abundance (concentration: 1mM)	NP40-soluble protein abundance (concentration: 2mM)	NP40-soluble protein abundance (concentration: 4mM)	NP40-soluble protein abundance (concentration: 6mM)	NP40-soluble protein abundance (concentration: 8mM)	NP40-soluble protein abundance (concentration: 10mM)
ADAM9 (UniProt Q13443)	1 ± 0.025	1.01 ± 0.044	0.993 ± 0.041	0.989 ± 0.026	0.978 ± 0.025	0.989 ± 0.042
UniProt Q13136 and related entries	0.998 ± 0.024	1.03 ± 0.042	1.03 ± 0.047	0.954 ± 0.038	0.954 ± 0.046	0.997 ± 0.078
THOC5 (UniProt Q13769)	1.36 ± 0.17	1.42 ± 0.23	1.65 ± 0.35	1.84 ± 0.54	2.03 ± 0.65	2.16 ± 0.88
UniProt Q14289-2|Q14289	0.988 ± 0.027	0.956 ± 0.058	0.978 ± 0.018	0.903 ± 0.024	0.908 ± 0.021	0.888 ± 0.014
DAG1 (UniProt Q14118)	1.019 ± 0.0087	1.06 ± 0.059	0.99 ± 0.029	1.04 ± 0.048	1.05 ± 0.027	1.05 ± 0.026
EIF3I (UniProt Q13347)	0.984 ± 0.038	0.961 ± 0.053	1.01 ± 0.056	1.11 ± 0.021	1.16 ± 0.075	1.2 ± 0.1
HNRNPA0 (UniProt Q13151)	1.02 ± 0.063	1.073 ± 0.0027	1.03 ± 0.039	1.05 ± 0.028	1.04 ± 0.059	1.07 ± 0.059
UniProt Q13952 and related entries	1 ± 0.011	1.03 ± 0.051	1.001 ± 0.0077	1 ± 0.018	1.01 ± 0.011	1.01 ± 0.029
COTL1 (UniProt Q14019)	0.985 ± 0.024	1.05 ± 0.096	0.943 ± 0.046	1.02 ± 0.049	0.965 ± 0.026	1.02 ± 0.06
TRA2A (UniProt Q13595)	1.02 ± 0.045	0.981 ± 0.051	1 ± 0.057	0.902 ± 0.04	0.861 ± 0.079	0.906 ± 0.082
PRPF4B (UniProt Q13523)	1.02 ± 0.02	1.01 ± 0.048	1.1 ± 0.037	1.2 ± 0.032	1.26 ± 0.042	1.34 ± 0.067
MDC1 (UniProt Q14676)	1.13 ± 0.032	1.31 ± 0.086	1.49 ± 0.12	1.86 ± 0.28	2.04 ± 0.41	2.34 ± 0.53
UniProt Q14558-2|Q14558	0.887 ± 0.093	0.828 ± 0.12	0.832 ± 0.097	0.804 ± 0.13	0.795 ± 0.1	0.801 ± 0.15
ZNF146 (UniProt Q15072)	0.932 ± 0.029	0.932 ± 0.021	0.862 ± 0.001	0.895 ± 0.009	0.892 ± 0.027	0.9394 ± 0.009
UniProt Q12800 and related entries	0.98 ± 0.013	0.996 ± 0.066	1.07 ± 0.033	0.957 ± 0.011	0.967 ± 0.045	1.04 ± 0.025
FRG1 (UniProt Q14331)	1.06 ± 0.029	1.04 ± 0.041	1.09 ± 0.026	1.08 ± 0.022	1.13 ± 0.029	1.12 ± 0.023
RIPK1 (UniProt Q13546)	0.975 ± 0.028	0.928 ± 0.093	0.954 ± 0.036	0.932 ± 0.024	0.922 ± 0.014	0.921 ± 0.016
GINS1 (UniProt Q14691)	0.999 ± 0.025	0.9955 ± 0.0052	1.01 ± 0.011	0.991 ± 0.022	1 ± 0.025	0.983 ± 0.022
UniProt Q13535 and related entries	1.003 ± 0.0071	0.9941 ± 0.0087	1.01 ± 0.022	0.97 ± 0.018	0.962 ± 0.039	0.991 ± 0.042
TARBP1 (UniProt Q13395)	0.978 ± 0.037	0.888 ± 0.039	0.962 ± 0.025	0.953 ± 0.033	0.98 ± 0.03	0.95 ± 0.018

Target	NP40-soluble protein abundance (concentration: 1mM)	NP40-soluble protein abundance (concentration: 2mM)	NP40-soluble protein abundance (concentration: 4mM)	NP40-soluble protein abundance (concentration: 6mM)	NP40-soluble protein abundance (concentration: 8mM)	NP40-soluble protein abundance (concentration: 10mM)
BECN1 (UniProt Q14457)	1.02 ± 0.021	1.03 ± 0.0019	1.003 ± 0.00075	0.987 ± 0.055	0.939 ± 0.031	0.965 ± 0.045
UniProt Q13330 and related entries	1 ± 0.037	0.979 ± 0.092	1 ± 0.041	1 ± 0.046	1.04 ± 0.074	1.04 ± 0.093
PAK1 (UniProt Q13153)	0.989 ± 0.035	1.05 ± 0.046	0.989 ± 0.036	0.981 ± 0.013	0.926 ± 0.032	0.975 ± 0.041
UniProt Q12789 and related entries	1.03 ± 0.023	0.999 ± 0.016	1.03 ± 0.037	0.984 ± 0.043	0.985 ± 0.068	1 ± 0.062
UBE2V1 (UniProt Q13404)	0.951 ± 0.073	0.958 ± 0.07	1.01 ± 0.089	1.14 ± 0.21	1.17 ± 0.14	1.18 ± 0.15
UniProt Q14444 and related entries	1.12 ± 0.041	1.22 ± 0.17	1.16 ± 0.064	1.19 ± 0.13	1.19 ± 0.094	1.25 ± 0.08
UniProt Q13085 and related entries	0.981 ± 0.012	0.883 ± 0.11	0.928 ± 0.024	0.902 ± 0.027	0.91 ± 0.033	0.859 ± 0.049
PLS1 (UniProt Q14651)	1.04 ± 0.052	1.03 ± 0.041	1.05 ± 0.068	1.11 ± 0.041	1.08 ± 0.047	1.08 ± 0.034
CPSF1 (UniProt Q10570)	1 ± 0.025	0.942 ± 0.045	1.01 ± 0.043	1.04 ± 0.037	1.06 ± 0.046	1.04 ± 0.085
LGALS3BP (UniProt Q08380)	0.952 ± 0.062	0.9536 ± 0.0087	0.897 ± 0.015	0.875 ± 0.032	0.86 ± 0.027	0.9 ± 0.039
UniProt Q13505 and related entries	0.965 ± 0.045	0.918 ± 0.066	0.9801 ± 0.0063	0.98 ± 0.073	1.02 ± 0.055	0.984 ± 0.05
UniProt Q13190 and related entries	0.976 ± 0.022	0.98 ± 0.044	0.998 ± 0.017	1 ± 0.074	1.02 ± 0.057	1.05 ± 0.057
UniProt Q13057 and related entries	0.971 ± 0.021	0.912 ± 0.088	0.993 ± 0.024	1.01 ± 0.063	1.04 ± 0.06	0.994 ± 0.021
PPID (UniProt Q08752)	1.035 ± 0.0079	1.02 ± 0.048	1.01 ± 0.018	0.999 ± 0.013	0.993 ± 0.021	0.98 ± 0.043
UniProt Q13627 and related entries	1.01 ± 0.0097	0.9868 ± 0.0037	0.985 ± 0.025	0.994 ± 0.016	1.028 ± 0.0074	1.03 ± 0.044
DSG2 (UniProt Q14126)	1.01 ± 0.025	1.05 ± 0.04	1.03 ± 0.012	1.01 ± 0.032	0.985 ± 0.031	0.9825 ± 0.0032
UniProt Q14005 and related entries	1.01 ± 0.013	1.03 ± 0.053	1 ± 0.034	0.9814 ± 0.0057	0.967 ± 0.036	0.965 ± 0.02
UniProt Q13564 and related entries	1.01 ± 0.033	1.02 ± 0.042	1.01 ± 0.036	0.982 ± 0.015	0.987 ± 0.064	0.997 ± 0.057
DDX10 (UniProt Q13206)	0.995 ± 0.02	1 ± 0.016	0.984 ± 0.029	0.981 ± 0.034	0.962 ± 0.031	0.979 ± 0.037
CHAF1A (UniProt Q13111)	1.05 ± 0.02	1.1 ± 0.063	1.097 ± 0.0031	1.07 ± 0.045	1.05 ± 0.055	1.08 ± 0.076

Random excerpt: four entries already listed, in no set order.
Target	NP40-soluble protein abundance (concentration: 1mM)	NP40-soluble protein abundance (concentration: 2mM)	NP40-soluble protein abundance (concentration: 4mM)	NP40-soluble protein abundance (concentration: 6mM)	NP40-soluble protein abundance (concentration: 8mM)	NP40-soluble protein abundance (concentration: 10mM)
CPSF1 (UniProt Q10570)	1 ± 0.025	0.942 ± 0.045	1.01 ± 0.043	1.04 ± 0.037	1.06 ± 0.046	1.04 ± 0.085
PPID (UniProt Q08752)	1.035 ± 0.0079	1.02 ± 0.048	1.01 ± 0.018	0.999 ± 0.013	0.993 ± 0.021	0.98 ± 0.043
UniProt Q13505 and related entries	0.965 ± 0.045	0.918 ± 0.066	0.9801 ± 0.0063	0.98 ± 0.073	1.02 ± 0.055	0.984 ± 0.05
UniProt Q13564 and related entries	1.01 ± 0.033	1.02 ± 0.042	1.01 ± 0.036	0.982 ± 0.015	0.987 ± 0.064	0.997 ± 0.057
